No constants are given. Whether binding was seen depends on the method and setting. Binding seen in cells or lysates may run through a third protein. Some results given as binding are weak or reduced against the parent protein; the word gives no strength.
Assays:
[1] = target: Myc-tagged RNF43 (RING finger 43), wild type (human) (UniProt Q68DV7); test: co-IP; AsPC-1 cells ectopically expressing Myc-tagged RNF43; reverse immunoprecipitation of Myc-RNF43, western blot; lysis in RIPA buffer (50 mM Tris-HCl pH 8.0, 150 mM NaCl, 1% NP-40, 0.5% deoxycholate, 0.1% SDS) with 5 mM N-ethylmaleimide; antibody at 4 °C overnight, Protein A/G Mag Sepharose
Flag-B-RAF T491A (human) = Flag-B-RAF T491A (human) (UniProt P15056); test: co-IP; PANC-1 cells transfected with control, wild-type or mutant B-RAF plasmids (MG132 treatment named for the K499R panel); immunoprecipitation with B-RAF antibody, RNF43 blotted and quantified; RIPA buffer with 5 mM N-ethylmaleimide, 4 °C overnight, Protein A/G Mag Sepharose
Flag-B-RAF K499R (human) = Flag-B-RAF K499R (human) (UniProt P15056); test: as above
[2] = target: Flag-B-RAF wild type (human) (UniProt P15056); test: as above

Protein sequences, listed by entry. Tags and fused reporters are not part of them. Lines headed by an entry give the natural chain unless they say otherwise; changes in a name come on top. Residues count along the entry.
UniProt Q68DV7, residues 24-783: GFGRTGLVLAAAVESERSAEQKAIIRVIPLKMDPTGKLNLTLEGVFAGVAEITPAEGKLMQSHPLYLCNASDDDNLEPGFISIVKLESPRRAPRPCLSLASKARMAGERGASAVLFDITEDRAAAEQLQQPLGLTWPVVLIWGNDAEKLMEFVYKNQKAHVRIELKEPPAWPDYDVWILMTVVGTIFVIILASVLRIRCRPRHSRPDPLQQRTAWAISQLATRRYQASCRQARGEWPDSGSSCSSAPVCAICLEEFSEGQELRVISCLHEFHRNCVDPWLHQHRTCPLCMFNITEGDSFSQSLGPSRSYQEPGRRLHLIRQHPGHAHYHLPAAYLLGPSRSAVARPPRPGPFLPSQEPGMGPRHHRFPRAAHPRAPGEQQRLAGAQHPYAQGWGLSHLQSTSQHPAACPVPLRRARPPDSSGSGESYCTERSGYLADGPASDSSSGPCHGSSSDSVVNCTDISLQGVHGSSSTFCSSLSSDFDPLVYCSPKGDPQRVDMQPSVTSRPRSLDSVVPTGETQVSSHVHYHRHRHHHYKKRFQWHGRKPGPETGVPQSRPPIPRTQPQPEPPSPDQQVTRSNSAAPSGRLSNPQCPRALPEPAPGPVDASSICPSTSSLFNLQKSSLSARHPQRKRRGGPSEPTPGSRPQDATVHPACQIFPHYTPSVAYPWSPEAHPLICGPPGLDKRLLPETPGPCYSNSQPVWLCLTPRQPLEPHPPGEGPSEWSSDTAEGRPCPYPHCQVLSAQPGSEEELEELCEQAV
UniProt P15056: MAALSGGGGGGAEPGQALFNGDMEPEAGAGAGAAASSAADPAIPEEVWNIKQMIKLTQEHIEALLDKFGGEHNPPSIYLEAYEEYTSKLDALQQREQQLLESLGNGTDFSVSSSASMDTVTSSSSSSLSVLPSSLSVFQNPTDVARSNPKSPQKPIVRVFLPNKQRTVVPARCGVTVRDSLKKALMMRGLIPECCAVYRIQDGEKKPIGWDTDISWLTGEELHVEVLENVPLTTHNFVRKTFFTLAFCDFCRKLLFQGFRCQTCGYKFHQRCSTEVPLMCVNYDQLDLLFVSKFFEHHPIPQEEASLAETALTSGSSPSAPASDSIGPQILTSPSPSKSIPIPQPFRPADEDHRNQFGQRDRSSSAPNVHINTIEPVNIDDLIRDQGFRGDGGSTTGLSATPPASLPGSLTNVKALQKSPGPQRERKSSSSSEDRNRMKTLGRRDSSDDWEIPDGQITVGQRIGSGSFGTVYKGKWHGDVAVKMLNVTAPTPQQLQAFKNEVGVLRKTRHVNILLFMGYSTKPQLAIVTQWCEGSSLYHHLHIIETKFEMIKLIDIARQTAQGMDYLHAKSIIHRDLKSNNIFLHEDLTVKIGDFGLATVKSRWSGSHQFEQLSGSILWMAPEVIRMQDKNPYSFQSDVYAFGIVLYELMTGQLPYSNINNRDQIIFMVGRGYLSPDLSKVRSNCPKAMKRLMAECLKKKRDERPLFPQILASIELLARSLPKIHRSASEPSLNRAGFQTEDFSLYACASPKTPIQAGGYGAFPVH
UniProt Q9P286: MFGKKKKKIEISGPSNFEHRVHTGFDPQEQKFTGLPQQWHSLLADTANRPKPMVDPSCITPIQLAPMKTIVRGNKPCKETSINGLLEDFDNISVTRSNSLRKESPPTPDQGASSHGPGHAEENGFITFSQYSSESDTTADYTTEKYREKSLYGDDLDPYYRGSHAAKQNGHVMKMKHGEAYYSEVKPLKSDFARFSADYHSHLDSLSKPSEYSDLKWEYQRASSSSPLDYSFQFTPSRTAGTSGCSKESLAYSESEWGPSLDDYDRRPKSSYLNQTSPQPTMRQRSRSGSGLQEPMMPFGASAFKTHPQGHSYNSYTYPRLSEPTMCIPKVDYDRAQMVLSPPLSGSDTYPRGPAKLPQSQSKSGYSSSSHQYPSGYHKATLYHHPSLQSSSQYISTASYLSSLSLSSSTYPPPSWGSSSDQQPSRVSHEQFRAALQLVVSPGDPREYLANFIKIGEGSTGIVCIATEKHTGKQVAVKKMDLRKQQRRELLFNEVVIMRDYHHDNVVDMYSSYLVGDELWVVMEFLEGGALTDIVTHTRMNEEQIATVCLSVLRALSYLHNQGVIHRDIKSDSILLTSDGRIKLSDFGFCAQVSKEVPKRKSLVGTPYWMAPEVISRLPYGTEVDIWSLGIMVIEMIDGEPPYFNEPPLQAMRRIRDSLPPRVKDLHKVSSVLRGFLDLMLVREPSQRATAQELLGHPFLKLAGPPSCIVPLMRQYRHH

Substance | binding [1] | binding (Flag-B-RAF T491A (human)) | binding (Flag-B-RAF K499R (human)) | binding [2]
B-RAF (in AsPC-1 cells) (from UniProt P15056 1-766) | binds | – | – | –
PAK5 (p21-activated kinase 5) (from UniProt Q9P286 1-719) | no binding | – | – | –
RNF43, endogenous wild type in PANC-1 cells (from UniProt Q68DV7 24-783) (enzyme) | – | binds | binds | binds

From PMC10966525
